Assay results from US7029692B1, “Transdermal therapeutic system with nicotine and addition of monoterpene ketones” (LTS Lohmann Therapie-Systeme AG, priority 1999, dated 2006).

Assay: simplified smelling-test model: odour assessment of 7%-wt. nicotine in miglyol 812 with odour-improving additive
Settings: 6 subjects, scale 3.0-12.0, higher = more favourable
[1] = 0.5%-wt. additive in 7%-wt. nicotine in miglyol 812
[2] = 1.0%-wt. additive in 7%-wt. nicotine in miglyol 812
[3] = 2.0%-wt. additive in 7%-wt. nicotine in miglyol 812

Row | Compound | odour rating, mean value (nicotine smell rating + 2 x overall impression rating) [1] | odour rating, mean value (nicotine smell rating + 2 x overall impression rating) [2] | odour rating, mean value (nicotine smell rating + 2 x overall impression rating) [3]
1 | CC(C)[C@@H]1CC[C@@H](C)CC1=O [(−)-Menthone, (−)-menthone] | 6.6 | 6.4 | 8.6
2 | CC1CCC(C(C)C)C(O)C1 (single isomer, unassigned; (-)) [(−)-Menthol, (−)-menthol, reference compound] | 4.0 | 4.1 | 4.9
